Experimental data published in publication PMC8242001.

Protein sequences, listed by entry. Tags and fused reporters are not part of them. Lines headed by an entry give the natural chain unless they say otherwise; changes in a name come on top.
UniProt P12962: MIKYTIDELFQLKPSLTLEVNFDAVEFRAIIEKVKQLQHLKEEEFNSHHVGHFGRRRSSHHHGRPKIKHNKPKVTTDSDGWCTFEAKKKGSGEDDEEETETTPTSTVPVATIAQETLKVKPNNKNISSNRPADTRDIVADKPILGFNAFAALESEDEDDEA
UniProt P07260: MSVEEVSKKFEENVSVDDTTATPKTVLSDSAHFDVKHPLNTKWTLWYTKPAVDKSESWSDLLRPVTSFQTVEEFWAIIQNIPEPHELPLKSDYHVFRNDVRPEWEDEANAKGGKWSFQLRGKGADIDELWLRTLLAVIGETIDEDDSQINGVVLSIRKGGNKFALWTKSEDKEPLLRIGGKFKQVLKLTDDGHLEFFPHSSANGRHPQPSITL

Assays:
[1] = molecular target: Caf20^∆5-FLAG (S. cerevisiae) (UniProt P12962); test: co-IP; as the low-salt Flag IP, but with high salt buffer (1 M KCl); Caf20-FLAG held on anti-Flag M2 magnetic beads from yeast total cell extract; eluted with 3X Flag peptide; western blot for native eIF4E
[2] = molecular target: Caf20^∆8-FLAG (S. cerevisiae) (UniProt P12962); test: as above
[3] = molecular target: Caf20^∆3-FLAG (S. cerevisiae) (UniProt P12962); test: as above
[4] = molecular target: Caf20-FLAG deleted for region B with the m^2 mutations (Y4A, L9A) (S. cerevisiae) (UniProt P12962); test: as above
[5] = molecular target: Caf20^∆4-FLAG (S. cerevisiae) (UniProt P12962); test: as above
[6] = molecular target: Caf20^∆B-FLAG (S. cerevisiae) (UniProt P12962); test: as above
[7] = molecular target: Caf20^∆7-FLAG (S. cerevisiae) (UniProt P12962); test: as above
[8] = molecular target: Caf20-FLAG deleted for region C with the m^2 mutations (Y4A, L9A) (S. cerevisiae) (UniProt P12962); test: as above
[9] = molecular target: Caf20^∆C-FLAG (S. cerevisiae) (UniProt P12962); test: as above
[10] = molecular target: Caf20^∆6-FLAG (S. cerevisiae) (UniProt P12962); test: as above
[11] = molecular target: Caf20^∆1-FLAG (S. cerevisiae) (UniProt P12962); test: as above
[12] = molecular target: Caf20^∆2-FLAG (S. cerevisiae) (UniProt P12962); test: as above
[13] = molecular target: Caf20^∆5-FLAG (S. cerevisiae) (UniProt P12962); test: co-IP; Caf20-FLAG held on anti-Flag M2 magnetic beads from yeast total cell extract; IP lysis buffer 30 mM HEPES-KOH pH 7.5, 10% glycerol, 1 mM TCEP with 100 mM KCl (low salt); 1-2 h at 4 °C; eluted with 3X Flag peptide; western blot for native eIF4E
[14] = molecular target: Caf20^∆8-FLAG (S. cerevisiae) (UniProt P12962); test: as above
[15] = molecular target: Caf20^∆3-FLAG (S. cerevisiae) (UniProt P12962); test: as above
[16] = molecular target: Caf20-FLAG deleted for region B with the m^2 mutations (Y4A, L9A) (S. cerevisiae) (UniProt P12962); test: as above
[17] = molecular target: Caf20^∆4-FLAG (S. cerevisiae) (UniProt P12962); test: as above
[18] = molecular target: Caf20^∆B-FLAG (S. cerevisiae) (UniProt P12962); test: as above
[19] = molecular target: Caf20^∆7-FLAG (S. cerevisiae) (UniProt P12962); test: as above
[20] = molecular target: Caf20-FLAG deleted for region C with the m^2 mutations (Y4A, L9A) (S. cerevisiae) (UniProt P12962); test: as above
[21] = molecular target: Caf20^∆C-FLAG (S. cerevisiae) (UniProt P12962); test: as above
[22] = molecular target: Caf20^∆6-FLAG (S. cerevisiae) (UniProt P12962); test: as above
[23] = molecular target: Caf20^∆1-FLAG (S. cerevisiae) (UniProt P12962); test: as above
[24] = molecular target: Caf20^∆2-FLAG (S. cerevisiae) (UniProt P12962); test: as above

binding [1]: binds
binding [2]: binds
binding [3]: binds
binding [4]: no binding
binding [5]: binds
binding [6]: binds
binding [7]: binds
binding [8]: no binding
binding [9]: binds
binding [10]: binds
binding [11]: no binding
binding [12]: binds
binding [13]: binds
binding [14]: binds
binding [15]: binds
binding [16]: no binding
binding [17]: binds
binding [18]: binds
binding [19]: binds
binding [20]: no binding
binding [21]: binds
binding [22]: binds
binding [23]: no binding
binding [24]: binds
Substance: eIF4E (native, yeast) (from UniProt P07260 1-213)

Results are given in words; binding and its absence hold for the method and conditions named. In cells and extracts the contact can be indirect. For part of these data: A result given as binding can be weak or reduced; the word gives no strength.
